{"sequences": {"note": "By UniProt entry, the sequences of proteins in these tests, tags left out. Where a name states a change or a piece, a line headed by the entry shows the natural chain unless it says otherwise.", "UniProt Q7Z2W4": "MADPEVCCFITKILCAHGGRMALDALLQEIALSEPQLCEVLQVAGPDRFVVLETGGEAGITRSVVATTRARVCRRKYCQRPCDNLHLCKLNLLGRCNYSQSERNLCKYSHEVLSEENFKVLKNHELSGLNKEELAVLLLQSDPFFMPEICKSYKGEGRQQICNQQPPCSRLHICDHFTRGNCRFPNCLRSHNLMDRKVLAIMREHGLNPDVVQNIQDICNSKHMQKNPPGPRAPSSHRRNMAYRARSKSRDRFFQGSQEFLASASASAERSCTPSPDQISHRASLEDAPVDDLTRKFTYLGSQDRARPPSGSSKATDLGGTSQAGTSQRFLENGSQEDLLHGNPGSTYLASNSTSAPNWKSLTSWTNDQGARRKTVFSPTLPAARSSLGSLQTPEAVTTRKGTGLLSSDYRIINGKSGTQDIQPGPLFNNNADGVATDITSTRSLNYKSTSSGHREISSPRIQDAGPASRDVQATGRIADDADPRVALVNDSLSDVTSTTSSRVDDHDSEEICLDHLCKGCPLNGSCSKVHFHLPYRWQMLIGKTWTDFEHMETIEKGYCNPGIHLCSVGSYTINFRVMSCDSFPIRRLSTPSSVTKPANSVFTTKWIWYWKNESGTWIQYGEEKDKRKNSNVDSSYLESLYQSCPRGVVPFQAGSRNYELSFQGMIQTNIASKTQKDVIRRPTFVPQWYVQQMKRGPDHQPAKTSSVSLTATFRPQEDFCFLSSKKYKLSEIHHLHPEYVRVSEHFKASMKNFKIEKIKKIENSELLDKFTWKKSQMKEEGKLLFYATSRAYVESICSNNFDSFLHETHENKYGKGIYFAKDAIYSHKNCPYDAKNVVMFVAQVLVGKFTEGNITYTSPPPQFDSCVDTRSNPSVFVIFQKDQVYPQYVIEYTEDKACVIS"}, "source": "paper PMC13175477", "binders": {"B1": {"name": "OASL (protein, UniProt Q15646 1-514)", "chain": "MALMQELYSTPASRLDSFVAQWLQPHREWKEEVLDAVRTVEEFLRQEHFQGKRGLDQDVRVLKVVKVGSFGNGTVLRSTREVELVAFLSCFHSFQEAAKHHKDVLRLIWKTMWQSQDLLDLGLEDLRMEQRVPDALVFTIQTRGTAEPITVTIVPAYRALGPSLPNSQPPPEVYVSLIKACGGPGNFCPSFSELQRNFVKHRPTKLKSLLRLVKHWYQQYVKARSPRANLPPLYALELLTIYAWEMGTEEDENFMLDEGFTTVMDLLLEYEVICIYWTKYYTLHNAIIEDCVRKQLKKERPIILDPADPTLNVAEGYRWDIVAQRASQCLKQDCCYDNRENPISSWNVKRARDIHLTVEQRGYPDFNLIVNPYEPIRKVKEKIRRTRGYSGLQRLSFQVPGSERQLLSSRCSLAKYGIFSHTHIYLLETIPSEIQVFVKNPDGGSYAYAINPNSFILGLKQQIEDQQGLPKKQQQLEFQGQVLQDWLGLGIYGIQDSDTLILSKKKGEALFPAS"}}, "biological_target": "ZAP-S qMut (human) (UniProt Q7Z2W4)", "assay": "co-IP; HEK293T ZAP-/- TRIM25-/- co-transfected, 48 h; ZAP precipitated from lysates (ZAP-L-FLAG with anti-FLAG; antibody for ZAP-S not stated); buffers as in the co-IP methods; western blot", "note": "Results are given in words; binding and its absence hold for the method and conditions named. Binding seen in cells or lysates may run through a third protein. Binding can be weak; no strength is given."}
{"binder": "B1", "values": [{"measurement": "binding", "value": "binds"}]}
